Data as given in PMC7287671, “Anticancer Ruthenium Complexes with HDAC Isoform Selectivity” (Molecules, 2020).

Legend:
[1] = tested on: MCF7 human breast adenocarcinoma cell line; assay: Cell viability assay (ChemoMetec Via1-Cassette); type: cell-based; details: MCF7, 96 h, triplicate
Method: viable cells. The experiments were carried out in triplicate.

[2] = tested on: H460 non-small lung carcinoma cells; set-up: method as in PMID 31964062; details: cited from earlier work

Compound: O=C(CCCCCCC(=O)Nc1ccccc1)NO [SAHA, suberanilohydroxamic acid, reference compound]
- EC50 [1]: ~1500 nM
- EC50 [2]: 1500 ± 400 nM
